The values below come from publication PMC12040169 (PLOS Biology, 2025).

The other results are listed elsewhere or left out.

The assay deals with T1, CTL2-GFP (C. trachomatis L2/434/Bu, GFP-expressing).
T1 construct: L2/434/Bu, GFP-expressing
More on the design: species or system HeLa; Intracellular C. trachomatis growth in HeLa cells, bulk GFP fluorescence relative to DMSO. Particulars: bulk GFP, single well; 28.5 h, 10 µM; inhibitor.
Consider `O=C(O)c1sc2ncccc2c1NS(=O)(=O)c1cc(Cl)sc1Cl` [CBK050650], for which the “% of control remaining” value came to 144.408%.

As for `Cc1ccc(Cc2cnc(NC(=O)NC3CCOC(C)(C)C3)s2)cc1F` (stereo not shown) [CBK304139], the “% of control remaining” value came out at 96.2459%.

With `CCCn1cc(CNC(=O)c2cccc(S(=O)(=O)N3CCCC3)c2)cn1` [CBK307095], the “% of control remaining” value is given as 71.3713%.

Regarding `CCCS(=O)(=O)NC[C@H]1C[C@@H]2CCN1C[C@@H]2c1cc(-c2ccccc2)nn1C` [CBK289095], the “% of control remaining” value worked out at 104.114%.

Turning to `O=C(O)COc1cccc2nsnc12` [CBK019749], the “% of control remaining” value worked out at 124.738%.

Consider `Clc1ccc(-n2ncc3c(NCc4ccccc4)ncnc32)cc1` [CBK287355], for which the “% of control remaining” value is 115.203%.

As for `c1cnc(N2CCCC2)c(OC2CCNC2)n1` (stereo not shown) [CBK115284], the “% of control remaining” value is recorded as 149.293%.

With `OCCCNc1cncc(-c2ccc(F)cc2F)n1` [CBK065851], the “% of control remaining” value is 182.96%.

With `O=C(O)CCC(CCC(=O)O)C(=O)O` [CBK260994], the “% of control remaining” value worked out at 124.786%.

For the compound `O=C(Cc1ccc(Cl)cc1)Nc1cccc(C(=O)Nc2ccccc2C(=O)O)c1` [CBK264750], the “% of control remaining” value is 119.513%.

As to `Cc1nn(Cc2nnc(-c3cccs3)o2)c(C)c1Br` [CBK010809], the “% of control remaining” value was 132.694%.

`O=C1N(C2CCCCC2)CC2C(c3ccccc3)ONC12O` (stereo not shown) [CBK021700]: the “% of control remaining” value is listed as 89.5654%.

Regarding `CN1CCN(C(=O)c2ccc(-c3cnc(OCC4CCN(C(=O)OC(C)(C)C)CC4)nc3)cn2)CC1` [CBK170021], the “% of control remaining” value is reported as 97.8657%.

Turning to `Cc1ccc2c(c1)cc(C)c1nn(CC(=O)NC3CC3)c(=O)n12` [CBK283873], the “% of control remaining” value is 106.819%.

`CCc1nn(CC(=O)N(C)C)c(=O)c2cc3sccc3n12` [CBK284031]: the “% of control remaining” value was determined as 108.982%.

With `S=C(Cc1csc2ccccc12)NC1CCCCC1` [CBK023515], the “% of control remaining” value is on record as 124.547%.

For the compound `CCNc1nccnc1-c1cnc(OC)nc1OC` [CBK088587], the “% of control remaining” value came to 94.9347%.

For the compound `O=C(Cc1cccs1)N1CCC(c2nnc(-c3ccccc3)c(-c3ccccc3)n2)CC1` [CBK286283], the “% of control remaining” value is 100.028%.

`O=C(Oc1ccc2c(c1)OCO2)c1cc(S(=O)(=O)N2CCOCC2)c(Cl)cc1Cl` [CBK269709]: the “% of control remaining” value was 122.508%.

With `Cc1c[nH]c(CN(C)c2cc([C@H]3C[C@@H](N)C3)nc(N3CCCC3)n2)n1` [CBK306798], the “% of control remaining” value worked out at 118.293%.

Consider `CN(C)c1ccc(NC(=O)CC2S/C(=N/c3ccccc3)N(c3ccccc3)C2=O)cc1` (stereo not shown) [CBK265644], for which the “% of control remaining” value stood at 99.7787%.

Turning to `CCOC(=O)C1CCCN(C(=O)Nc2cc(C)on2)C1` (stereo not shown) [CBK305661], the “% of control remaining” value came out at 122.811%.
